{
  "sequences": {"note": "The chains behind the UniProt entries cited, without tags or fusion partners. Where a name states a change or a piece, a line headed by the entry shows the natural chain unless it says otherwise.", "UniProt P42909": "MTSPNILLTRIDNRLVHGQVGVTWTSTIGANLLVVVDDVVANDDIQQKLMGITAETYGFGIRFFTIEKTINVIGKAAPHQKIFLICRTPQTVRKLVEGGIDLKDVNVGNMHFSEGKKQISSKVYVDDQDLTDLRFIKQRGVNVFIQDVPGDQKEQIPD", "UniProt P39099": "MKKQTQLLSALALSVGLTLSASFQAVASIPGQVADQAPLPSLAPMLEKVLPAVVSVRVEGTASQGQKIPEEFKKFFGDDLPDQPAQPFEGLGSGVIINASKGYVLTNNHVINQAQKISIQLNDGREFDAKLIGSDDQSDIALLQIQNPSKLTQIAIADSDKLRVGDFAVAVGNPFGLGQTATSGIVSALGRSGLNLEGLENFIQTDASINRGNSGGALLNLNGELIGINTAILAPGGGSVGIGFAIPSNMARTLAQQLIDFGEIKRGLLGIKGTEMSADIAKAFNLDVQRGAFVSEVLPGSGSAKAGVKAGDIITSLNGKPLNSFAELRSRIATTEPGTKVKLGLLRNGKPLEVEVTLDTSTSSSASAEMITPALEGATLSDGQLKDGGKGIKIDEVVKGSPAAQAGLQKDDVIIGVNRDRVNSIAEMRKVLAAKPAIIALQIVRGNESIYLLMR", "UniProt P36649": "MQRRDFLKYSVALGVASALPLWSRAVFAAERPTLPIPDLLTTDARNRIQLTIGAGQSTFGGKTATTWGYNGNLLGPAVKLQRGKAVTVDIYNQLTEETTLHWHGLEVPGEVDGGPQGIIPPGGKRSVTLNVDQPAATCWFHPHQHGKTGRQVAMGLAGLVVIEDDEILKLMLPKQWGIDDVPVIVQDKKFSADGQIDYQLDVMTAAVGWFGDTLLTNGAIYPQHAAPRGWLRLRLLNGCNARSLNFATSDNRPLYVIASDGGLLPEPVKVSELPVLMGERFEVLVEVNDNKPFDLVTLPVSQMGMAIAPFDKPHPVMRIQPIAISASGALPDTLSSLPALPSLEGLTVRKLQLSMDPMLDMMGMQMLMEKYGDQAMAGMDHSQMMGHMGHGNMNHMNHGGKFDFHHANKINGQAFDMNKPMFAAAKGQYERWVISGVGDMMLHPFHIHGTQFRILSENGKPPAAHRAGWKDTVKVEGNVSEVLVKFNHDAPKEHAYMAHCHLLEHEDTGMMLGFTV", "UniProt P33940": "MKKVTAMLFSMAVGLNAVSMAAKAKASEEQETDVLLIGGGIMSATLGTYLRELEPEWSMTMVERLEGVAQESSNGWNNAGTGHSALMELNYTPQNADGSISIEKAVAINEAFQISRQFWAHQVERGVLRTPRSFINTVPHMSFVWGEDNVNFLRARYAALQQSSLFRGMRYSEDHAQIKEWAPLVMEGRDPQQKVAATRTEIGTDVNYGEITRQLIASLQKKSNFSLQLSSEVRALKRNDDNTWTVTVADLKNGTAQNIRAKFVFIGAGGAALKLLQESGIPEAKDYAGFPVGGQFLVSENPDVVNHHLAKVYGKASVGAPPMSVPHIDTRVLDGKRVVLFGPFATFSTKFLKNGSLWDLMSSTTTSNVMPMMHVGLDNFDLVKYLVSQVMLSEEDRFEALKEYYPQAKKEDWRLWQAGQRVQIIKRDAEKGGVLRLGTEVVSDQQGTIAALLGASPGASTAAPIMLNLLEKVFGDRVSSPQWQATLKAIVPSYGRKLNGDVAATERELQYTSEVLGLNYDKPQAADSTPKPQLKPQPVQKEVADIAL", "UniProt P37908": "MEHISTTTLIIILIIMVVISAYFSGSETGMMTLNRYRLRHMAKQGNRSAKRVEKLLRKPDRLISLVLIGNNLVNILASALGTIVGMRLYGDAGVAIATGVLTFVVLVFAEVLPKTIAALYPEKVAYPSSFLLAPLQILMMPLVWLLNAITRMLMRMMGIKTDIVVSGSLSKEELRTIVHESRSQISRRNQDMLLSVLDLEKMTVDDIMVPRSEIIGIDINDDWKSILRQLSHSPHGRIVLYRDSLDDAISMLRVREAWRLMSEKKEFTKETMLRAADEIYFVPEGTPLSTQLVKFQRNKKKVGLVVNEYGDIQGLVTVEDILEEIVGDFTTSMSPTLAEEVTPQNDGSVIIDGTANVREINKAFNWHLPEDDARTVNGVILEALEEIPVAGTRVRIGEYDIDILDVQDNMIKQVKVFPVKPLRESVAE", "UniProt P36995": "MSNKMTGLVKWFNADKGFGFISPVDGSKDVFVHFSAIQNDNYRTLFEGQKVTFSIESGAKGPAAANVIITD", "UniProt P37767": "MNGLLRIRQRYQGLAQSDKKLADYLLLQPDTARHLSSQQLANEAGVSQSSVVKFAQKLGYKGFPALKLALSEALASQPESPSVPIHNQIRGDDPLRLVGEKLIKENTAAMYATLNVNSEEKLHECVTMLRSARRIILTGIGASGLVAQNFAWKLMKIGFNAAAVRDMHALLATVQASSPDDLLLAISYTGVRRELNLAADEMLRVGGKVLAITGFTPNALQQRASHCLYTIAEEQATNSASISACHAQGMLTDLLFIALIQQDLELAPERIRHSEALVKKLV", "UniProt P37774": "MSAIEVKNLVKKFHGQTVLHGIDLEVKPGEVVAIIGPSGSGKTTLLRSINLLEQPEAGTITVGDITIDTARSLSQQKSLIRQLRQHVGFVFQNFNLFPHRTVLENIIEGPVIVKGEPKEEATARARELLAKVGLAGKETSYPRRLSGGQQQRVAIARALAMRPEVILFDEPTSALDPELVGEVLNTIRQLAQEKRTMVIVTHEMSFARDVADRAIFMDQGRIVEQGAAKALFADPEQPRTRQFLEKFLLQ", "UniProt P37146": "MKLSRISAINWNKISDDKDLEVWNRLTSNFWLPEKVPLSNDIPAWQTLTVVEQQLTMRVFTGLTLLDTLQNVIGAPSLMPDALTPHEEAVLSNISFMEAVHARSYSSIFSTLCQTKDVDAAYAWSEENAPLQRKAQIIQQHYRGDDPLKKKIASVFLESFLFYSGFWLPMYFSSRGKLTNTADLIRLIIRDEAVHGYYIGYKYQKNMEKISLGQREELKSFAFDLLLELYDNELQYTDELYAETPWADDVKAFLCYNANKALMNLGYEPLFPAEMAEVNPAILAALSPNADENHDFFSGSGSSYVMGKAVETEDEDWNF", "UniProt P36881": "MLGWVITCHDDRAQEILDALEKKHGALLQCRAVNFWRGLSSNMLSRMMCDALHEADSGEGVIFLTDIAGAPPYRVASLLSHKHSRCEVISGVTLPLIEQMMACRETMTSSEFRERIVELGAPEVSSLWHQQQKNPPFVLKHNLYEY", "UniProt P39359": "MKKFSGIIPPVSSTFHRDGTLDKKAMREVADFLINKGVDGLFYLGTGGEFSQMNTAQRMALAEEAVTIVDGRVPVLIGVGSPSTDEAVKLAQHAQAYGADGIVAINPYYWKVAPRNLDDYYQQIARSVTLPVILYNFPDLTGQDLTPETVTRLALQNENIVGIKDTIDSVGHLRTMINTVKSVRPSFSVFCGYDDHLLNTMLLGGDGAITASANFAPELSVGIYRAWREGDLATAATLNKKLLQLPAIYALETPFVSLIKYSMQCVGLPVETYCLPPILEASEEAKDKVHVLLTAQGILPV", "UniProt P39333": "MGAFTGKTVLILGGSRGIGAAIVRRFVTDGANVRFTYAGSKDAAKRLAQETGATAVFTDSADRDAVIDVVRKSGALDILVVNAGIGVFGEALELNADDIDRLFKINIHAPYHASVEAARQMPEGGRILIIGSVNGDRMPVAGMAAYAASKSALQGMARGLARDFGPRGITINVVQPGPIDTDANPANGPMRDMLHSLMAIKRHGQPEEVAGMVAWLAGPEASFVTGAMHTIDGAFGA", "UniProt P38489": "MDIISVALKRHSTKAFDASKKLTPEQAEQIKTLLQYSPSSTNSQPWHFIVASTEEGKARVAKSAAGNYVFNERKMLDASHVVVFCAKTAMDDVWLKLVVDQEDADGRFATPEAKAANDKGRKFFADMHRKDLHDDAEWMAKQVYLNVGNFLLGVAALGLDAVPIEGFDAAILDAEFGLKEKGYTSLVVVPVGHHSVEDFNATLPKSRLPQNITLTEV", "UniProt P37676": "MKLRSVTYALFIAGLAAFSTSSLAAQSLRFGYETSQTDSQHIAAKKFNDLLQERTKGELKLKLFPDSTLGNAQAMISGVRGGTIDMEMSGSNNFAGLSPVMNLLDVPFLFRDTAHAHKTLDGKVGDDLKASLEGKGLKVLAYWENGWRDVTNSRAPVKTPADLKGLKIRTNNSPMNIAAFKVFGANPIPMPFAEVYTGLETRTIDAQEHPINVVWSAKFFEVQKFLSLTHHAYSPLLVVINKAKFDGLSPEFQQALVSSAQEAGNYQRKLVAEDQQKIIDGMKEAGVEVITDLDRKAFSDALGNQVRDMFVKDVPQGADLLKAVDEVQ", "UniProt P37653": "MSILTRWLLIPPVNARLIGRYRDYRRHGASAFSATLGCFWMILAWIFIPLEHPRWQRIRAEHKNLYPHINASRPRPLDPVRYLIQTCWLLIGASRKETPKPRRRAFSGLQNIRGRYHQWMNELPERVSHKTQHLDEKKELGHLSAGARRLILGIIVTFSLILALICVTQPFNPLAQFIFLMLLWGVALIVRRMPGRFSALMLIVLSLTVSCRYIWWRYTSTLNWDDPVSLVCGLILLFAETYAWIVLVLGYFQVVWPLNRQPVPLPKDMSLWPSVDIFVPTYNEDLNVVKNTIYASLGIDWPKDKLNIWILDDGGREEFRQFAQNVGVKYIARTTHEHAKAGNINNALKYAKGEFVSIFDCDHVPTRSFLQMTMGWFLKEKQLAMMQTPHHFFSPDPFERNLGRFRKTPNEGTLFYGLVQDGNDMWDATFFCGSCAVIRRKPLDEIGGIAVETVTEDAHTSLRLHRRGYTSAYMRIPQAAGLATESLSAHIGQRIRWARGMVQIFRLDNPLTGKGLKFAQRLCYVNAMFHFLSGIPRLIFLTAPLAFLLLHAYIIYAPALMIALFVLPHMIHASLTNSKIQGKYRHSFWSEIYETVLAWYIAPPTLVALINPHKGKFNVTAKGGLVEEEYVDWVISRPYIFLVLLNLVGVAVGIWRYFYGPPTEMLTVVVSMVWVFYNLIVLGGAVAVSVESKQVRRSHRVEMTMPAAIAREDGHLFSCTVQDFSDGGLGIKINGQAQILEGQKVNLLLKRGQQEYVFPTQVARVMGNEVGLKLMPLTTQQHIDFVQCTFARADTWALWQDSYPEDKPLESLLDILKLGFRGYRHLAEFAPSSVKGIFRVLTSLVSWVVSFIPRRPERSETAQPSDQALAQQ", "UniProt P38038": "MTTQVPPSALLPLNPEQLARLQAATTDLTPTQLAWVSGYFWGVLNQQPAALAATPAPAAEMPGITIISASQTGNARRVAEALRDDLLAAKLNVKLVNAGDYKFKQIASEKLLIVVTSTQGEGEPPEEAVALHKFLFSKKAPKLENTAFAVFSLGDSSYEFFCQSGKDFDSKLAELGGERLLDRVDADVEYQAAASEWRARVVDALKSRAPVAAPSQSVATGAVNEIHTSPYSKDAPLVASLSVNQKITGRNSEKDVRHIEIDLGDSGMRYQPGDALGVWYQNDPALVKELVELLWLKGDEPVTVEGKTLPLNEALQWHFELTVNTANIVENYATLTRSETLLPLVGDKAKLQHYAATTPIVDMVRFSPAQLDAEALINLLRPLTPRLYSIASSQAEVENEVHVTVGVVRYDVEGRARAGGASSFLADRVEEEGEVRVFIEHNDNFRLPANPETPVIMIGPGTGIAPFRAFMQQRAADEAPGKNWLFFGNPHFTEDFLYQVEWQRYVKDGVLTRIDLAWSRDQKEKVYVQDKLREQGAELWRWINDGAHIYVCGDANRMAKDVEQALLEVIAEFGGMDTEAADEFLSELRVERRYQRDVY", "UniProt P37642": "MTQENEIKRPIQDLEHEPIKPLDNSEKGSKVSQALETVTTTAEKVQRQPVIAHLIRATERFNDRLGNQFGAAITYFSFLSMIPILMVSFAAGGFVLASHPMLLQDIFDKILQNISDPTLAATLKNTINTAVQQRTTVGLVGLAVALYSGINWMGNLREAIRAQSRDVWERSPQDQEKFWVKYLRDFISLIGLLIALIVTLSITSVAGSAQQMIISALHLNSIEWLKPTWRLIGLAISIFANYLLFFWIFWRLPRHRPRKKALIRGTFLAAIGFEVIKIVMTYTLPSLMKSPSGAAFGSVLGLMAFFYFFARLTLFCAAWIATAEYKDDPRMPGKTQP", "UniProt P36929": "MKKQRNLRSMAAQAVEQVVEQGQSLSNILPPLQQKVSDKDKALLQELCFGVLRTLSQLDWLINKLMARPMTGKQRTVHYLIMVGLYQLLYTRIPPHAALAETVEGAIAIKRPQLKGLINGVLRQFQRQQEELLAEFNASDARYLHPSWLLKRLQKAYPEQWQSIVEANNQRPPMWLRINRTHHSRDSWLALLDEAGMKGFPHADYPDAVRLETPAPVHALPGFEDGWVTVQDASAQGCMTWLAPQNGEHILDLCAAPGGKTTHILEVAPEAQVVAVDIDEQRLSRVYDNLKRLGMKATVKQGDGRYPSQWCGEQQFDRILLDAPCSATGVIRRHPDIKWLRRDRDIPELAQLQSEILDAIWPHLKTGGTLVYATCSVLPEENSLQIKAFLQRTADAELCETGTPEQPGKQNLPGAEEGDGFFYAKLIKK"},
  "source": "the supplement of paper PMC12819154",
  "about": "“High-throughput peptide-centric local stability assay extends protein–ligand identification to membrane proteins, tissues and bacteria” (Nature Structural & Molecular Biology, 2025)",
  "note": "The list shows a part of the results. Most entries show no effect beyond the scatter of the controls.",
  "data": [
    {"compound": "CC1(C)S[C@@H]2[C@H](NC(=O)[C@H](N)c3ccccc3)C(=O)N2[C@H]1C(=O)O [ampicillin]", "experiment": "log2 fold change of tryptic peptide abundance, ligand vs vehicle (limited proteolysis) (log2 ratio); higher = more trypsin-susceptible (destabilized)", "conditions": "ligand concentration: 10 uM; sample: E. coli crude lysate", "values": [
      {"target": "UniProt P42909 (peptide sequence: DVNVGNMHFSEGKK, peptide start residue: 104)", "log2 fold change": -0.376},
      {"target": "UniProt P37902 (peptide sequence: ALFKEPNDKALN, peptide start residue: 291)", "log2 fold change": -0.252},
      {"target": "UniProt P37650 (peptide sequence: AQGLAAVDSGMAGK, peptide start residue: 274)", "log2 fold change": 0.44},
      {"target": "UniProt P39099 (peptide sequence: LTQIAIADSDK, peptide start residue: 151)", "log2 fold change": 0.696},
      {"target": "UniProt P37051 (peptide sequence: HELNIVQNNEFVDHR, peptide start residue: 30)", "log2 fold change": 0.101},
      {"target": "UniProt P36649 (peptide sequence: FDFHHANK, peptide start residue: 402)", "log2 fold change": 0.0396},
      {"target": "UniProt P33940 (peptide sequence: VSSPQWQATLK, peptide start residue: 478)", "log2 fold change": 0.233},
      {"target": "UniProt P37908 (peptide sequence: AFNWHLPEDDAR, peptide start residue: 363)", "log2 fold change": -0.044},
      {"target": "UniProt P45804 (peptide sequence: ILFAFNDDR, peptide start residue: 504)", "log2 fold change": 0.0744},
      {"target": "UniProt P36995 (peptide sequence: VTFSIESGAK, peptide start residue: 51)", "log2 fold change": 0.157},
      {"target": "UniProt P37767 (peptide sequence: QRYQGLAQSDKK, peptide start residue: 9)", "log2 fold change": -0.169},
      {"target": "UniProt P33915 (peptide sequence: AAQALGVSDR, peptide start residue: 237)", "log2 fold change": -0.204},
      {"target": "UniProt P42904 (peptide sequence: INVGNMHYANGK, peptide start residue: 102)", "log2 fold change": 0.0447},
      {"target": "UniProt P37774 (peptide sequence: TVLENIIEGPVIVKGEPK, peptide start residue: 101)", "log2 fold change": 0.452},
      {"target": "UniProt P39829 (peptide sequence: SAIVEVLSPGQR, peptide start residue: 393)", "log2 fold change": -0.811},
      {"target": "UniProt P37146 (peptide sequence: ISDDKDLEVWNR, peptide start residue: 14)", "log2 fold change": -0.0367},
      {"target": "UniProt P43676 (peptide sequence: IPEDRKK, peptide start residue: 193)", "log2 fold change": 0.116},
      {"target": "UniProt P45544 (peptide sequence: GTFVQSQK, peptide start residue: 72)", "log2 fold change": 0.417},
      {"target": "UniProt P36881 (peptide sequence: AQEILDALEKK, peptide start residue: 13)", "log2 fold change": -0.629},
      {"target": "UniProt P39831 (peptide sequence: FKGDDGKAEK, peptide start residue: 190)", "log2 fold change": -0.156},
      {"target": "UniProt P39359 (peptide sequence: LALQNENIVGIKDTIDSVGHLR, peptide start residue: 153)", "log2 fold change": -0.352},
      {"target": "UniProt P39333 (peptide sequence: MPVAGMAAYAASK, peptide start residue: 138)", "log2 fold change": 0.242},
      {"target": "UniProt P38489 (peptide sequence: KFFADMHRK, peptide start residue: 122)", "log2 fold change": 0.553},
      {"target": "UniProt P37676 (peptide sequence: AFSDALGNQVR, peptide start residue: 297)", "log2 fold change": 0.426},
      {"target": "UniProt P37005 (peptide sequence: AENIGAAAR, peptide start residue: 13)", "log2 fold change": 0.376},
      {"target": "UniProt P37653 (peptide sequence: AFSGLQNIR, peptide start residue: 105)", "log2 fold change": -0.219},
      {"target": "UniProt P38038 (peptide sequence: YVKDGVLTR, peptide start residue: 505)", "log2 fold change": 0.249},
      {"target": "UniProt P39297 (peptide sequence: IGSVSTMVR, peptide start residue: 56)", "log2 fold change": 0.327},
      {"target": "UniProt P37751 (peptide sequence: GKWVLASDFPFTR, peptide start residue: 297)", "log2 fold change": -0.259},
      {"target": "UniProt P37623 (peptide sequence: EQAPQGPR, peptide start residue: 23)", "log2 fold change": -0.0382},
      {"target": "UniProt P36547 (peptide sequence: NQSALEVK, peptide start residue: 168)", "log2 fold change": 0.483},
      {"target": "UniProt P37642 (peptide sequence: VSQALETVTTTAEKVQR, peptide start residue: 31)", "log2 fold change": -0.607},
      {"target": "UniProt P39377 (peptide sequence: IEQVYAR, peptide start residue: 365)", "log2 fold change": -0.367},
      {"target": "UniProt P39399 (peptide sequence: LLRDNIGNSFR, peptide start residue: 197)", "log2 fold change": 0.232},
      {"target": "UniProt P36929 (peptide sequence: ILLDAPCSATGVIRR, peptide start residue: 319)", "log2 fold change": 0.447},
      {"target": "UniProt P37024 (peptide sequence: DLSDFWK, peptide start residue: 767)", "log2 fold change": -0.169}
    ]}
  ]
}
